The target of one test is GST-CaM8 (Arabidopsis) (UniProt O23320). Briefly: pull-down; GST-tagged bait (CaM1, CaM8, SSP) on glutathione agarose with His-kinase or its variants; E. coli supernatants, 4°C overnight; 25 mmol/L Tris pH 7.5, 50 mmol/L NaCl, 3 mmol/L DTT; washes with 1% Triton X-100, 0.1% SDS; Western detection; calcium 2 to 10 μmol/L tested for CaM1 (S7 Fig).
In test [1] the target is T1, MBP-AGB1 (Arabidopsis) (UniProt P49177).
T1 sequence: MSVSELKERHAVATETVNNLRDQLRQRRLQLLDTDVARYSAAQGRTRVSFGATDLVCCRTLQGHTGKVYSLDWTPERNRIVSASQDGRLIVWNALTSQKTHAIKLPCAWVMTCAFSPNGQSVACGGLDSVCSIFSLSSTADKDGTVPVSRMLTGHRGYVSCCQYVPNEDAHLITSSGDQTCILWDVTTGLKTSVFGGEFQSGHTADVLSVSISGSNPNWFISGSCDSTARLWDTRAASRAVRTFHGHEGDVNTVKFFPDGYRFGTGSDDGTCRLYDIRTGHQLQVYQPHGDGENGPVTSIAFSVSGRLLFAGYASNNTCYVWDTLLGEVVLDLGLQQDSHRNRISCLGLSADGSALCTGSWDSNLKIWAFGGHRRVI
Briefly: pull-down; MBP-AGB1 as bait with His-kinase or its variants; proteins expressed in E. coli; Western detection.

Sequences of proteins named here, by UniProt entry; tags and fusion partners are left off. A change or cut given only in a name is not applied to a line headed by its entry.
UniProt O23320: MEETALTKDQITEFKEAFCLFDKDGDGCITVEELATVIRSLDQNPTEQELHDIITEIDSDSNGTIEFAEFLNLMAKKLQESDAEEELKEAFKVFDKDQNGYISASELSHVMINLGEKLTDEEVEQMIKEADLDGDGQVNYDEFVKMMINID
UniProt Q9ZU46: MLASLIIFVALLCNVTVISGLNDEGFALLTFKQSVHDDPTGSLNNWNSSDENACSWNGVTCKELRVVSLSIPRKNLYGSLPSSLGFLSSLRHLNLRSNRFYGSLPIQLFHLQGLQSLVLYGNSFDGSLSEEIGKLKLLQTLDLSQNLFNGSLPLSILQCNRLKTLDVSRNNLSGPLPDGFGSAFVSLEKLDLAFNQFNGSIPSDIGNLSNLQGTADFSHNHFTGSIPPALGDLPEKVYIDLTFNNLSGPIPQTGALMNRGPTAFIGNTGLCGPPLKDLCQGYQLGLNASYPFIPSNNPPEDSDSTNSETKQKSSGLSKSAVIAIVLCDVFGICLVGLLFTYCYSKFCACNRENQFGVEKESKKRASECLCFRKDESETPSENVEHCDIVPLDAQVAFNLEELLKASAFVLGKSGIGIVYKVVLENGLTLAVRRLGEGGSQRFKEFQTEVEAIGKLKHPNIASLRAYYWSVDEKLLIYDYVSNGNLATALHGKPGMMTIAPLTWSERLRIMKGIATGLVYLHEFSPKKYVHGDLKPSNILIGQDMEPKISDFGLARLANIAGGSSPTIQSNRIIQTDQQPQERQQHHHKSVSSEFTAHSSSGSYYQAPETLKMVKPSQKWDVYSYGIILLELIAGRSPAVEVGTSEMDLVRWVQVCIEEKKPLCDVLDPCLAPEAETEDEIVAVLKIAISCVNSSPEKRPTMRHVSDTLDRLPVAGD

The target in test [2] is T1, MBP-AGB1 (Arabidopsis). The test can be described thus: pull-down; His-tagged ZAR1 intracellular domain co-incubated with GST-CaM1 and MBP-AGB1 together; pulled down by GST-CaM1 or by MBP-AGB1.
The target in test [3] is T2, GST-tagged SSP protein (Arabidopsis) (UniProt Q7XJT7).
T2 sequence: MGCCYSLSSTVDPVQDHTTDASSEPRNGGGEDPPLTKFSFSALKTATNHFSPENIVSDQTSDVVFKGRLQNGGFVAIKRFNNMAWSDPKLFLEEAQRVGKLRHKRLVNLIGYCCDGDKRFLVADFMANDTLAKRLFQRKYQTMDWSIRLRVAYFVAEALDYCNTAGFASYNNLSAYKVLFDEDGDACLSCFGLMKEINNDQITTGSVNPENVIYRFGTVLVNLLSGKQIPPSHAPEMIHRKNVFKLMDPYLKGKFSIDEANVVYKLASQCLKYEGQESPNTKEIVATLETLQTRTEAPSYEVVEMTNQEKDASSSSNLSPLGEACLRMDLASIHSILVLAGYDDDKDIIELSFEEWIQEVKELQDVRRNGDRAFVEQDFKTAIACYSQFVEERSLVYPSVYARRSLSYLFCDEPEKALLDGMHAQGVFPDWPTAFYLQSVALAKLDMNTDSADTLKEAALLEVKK
Briefly: pull-down; GST-tagged bait (CaM1, CaM8, SSP) on glutathione agarose with His-kinase or its variants; E. coli supernatants, 4°C overnight; 25 mmol/L Tris pH 7.5, 50 mmol/L NaCl, 3 mmol/L DTT; washes with 1% Triton X-100, 0.1% SDS; Western detection; calcium 2 to 10 μmol/L tested for CaM1 (S7 Fig).

Another test deals with T3, AGB1-nYFP (Arabidopsis) (UniProt P49177).
T3 sequence: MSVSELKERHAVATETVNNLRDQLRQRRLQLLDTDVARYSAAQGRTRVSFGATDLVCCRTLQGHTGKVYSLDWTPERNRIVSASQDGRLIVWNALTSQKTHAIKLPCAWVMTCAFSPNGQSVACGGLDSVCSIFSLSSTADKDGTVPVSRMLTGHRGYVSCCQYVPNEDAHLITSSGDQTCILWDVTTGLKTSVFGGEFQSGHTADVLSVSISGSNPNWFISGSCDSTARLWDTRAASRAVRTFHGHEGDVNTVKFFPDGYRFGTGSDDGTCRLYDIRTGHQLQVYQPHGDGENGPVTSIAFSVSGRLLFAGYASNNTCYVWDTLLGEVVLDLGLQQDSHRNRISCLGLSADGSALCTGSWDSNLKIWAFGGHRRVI
Briefly: split reporter; BiFC (cYFP and nYFP fusions, 35S promoter) in Arabidopsis leaf protoplasts, confocal microscopy.

Test [4] concerns the target FLAG-ZAR1^ΔGβBS (Arabidopsis) (UniProt Q9ZU46). The test can be described thus: co-IP; FLAG-tagged ZAR1 or variants co-expressed with HA-tagged AGB1 in Arabidopsis leaf protoplasts; membrane fraction in 1% Triton X-100; anti-FLAG-M2 gel, 4°C, 1 hr; Western blot.

Results are given in words; binding and its absence hold for the method and conditions named. Binding seen in cells or lysates may run through a third protein. For some assays here: Binding can be weak; no strength is given. For some assays here: Where a sequence is shown, tags or fusion partners need not be part of it.

With “His-kinase^ΔCaMBD (from UniProt Q9ZU46) (domain or fragment)”, the binding entry with GST-CaM8 (Arabidopsis) is on record as “no binding”.

For “His-kinase^ΔGβBS (from UniProt Q9ZU46) (domain or fragment)”, in the test with MBP-AGB1 (Arabidopsis) [1], the binding result is “no binding”.

As for “His-tagged ZAR1 kinase domain (from UniProt Q9ZU46) (domain or fragment)”, the binding entry (in the test with MBP-AGB1 (Arabidopsis) [1]; with MBP-AGB1 (Arabidopsis) [2]; in test [3]; in the test with GST-CaM8 (Arabidopsis)) was “binds” in each case.

As to “ZAR1^ΔGβBS-cYFP (from UniProt Q9ZU46) (receptor)”, the binding entry in the test with AGB1-nYFP (Arabidopsis) is “no binding”.

B1: HA-AGB1 (protein, UniProt P49177 1-377)
chain: MSVSELKERHAVATETVNNLRDQLRQRRLQLLDTDVARYSAAQGRTRVSFGATDLVCCRTLQGHTGKVYSLDWTPERNRIVSASQDGRLIVWNALTSQKTHAIKLPCAWVMTCAFSPNGQSVACGGLDSVCSIFSLSSTADKDGTVPVSRMLTGHRGYVSCCQYVPNEDAHLITSSGDQTCILWDVTTGLKTSVFGGEFQSGHTADVLSVSISGSNPNWFISGSCDSTARLWDTRAASRAVRTFHGHEGDVNTVKFFPDGYRFGTGSDDGTCRLYDIRTGHQLQVYQPHGDGENGPVTSIAFSVSGRLLFAGYASNNTCYVWDTLLGEVVLDLGLQQDSHRNRISCLGLSADGSALCTGSWDSNLKIWAFGGHRRVI
In the case of B1, in test [4], the binding entry was “no binding”.

For the origin of these results see publication PMC4807781.
